Experimental data from patent US20210196823A1, “Methods of Treating Metabolic Disease” (Pfizer Inc., priority 2018, published 2021).
These are yes or no findings as the source states them, for the method shown. Some binding calls cover weakened binding; strength is not graded here.

The chains behind the UniProt entries cited, without tags or fusion partners. Residues count along the entry.
UniProt P22004, residues 382-513: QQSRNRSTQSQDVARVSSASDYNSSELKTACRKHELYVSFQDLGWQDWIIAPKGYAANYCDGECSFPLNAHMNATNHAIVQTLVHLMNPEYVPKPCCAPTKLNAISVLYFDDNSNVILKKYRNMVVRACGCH

Legend:
BMP6 [1] = target: BMP6 (UniProt P22004); assay: SPR (Biacore): BMP at 50 nM over ERFE A4-biotin amine coupled to a CM4 chip, MES-Tris pH 6.0, 25 °C
BMP2 [2] = target: T1, BMP2 (UniProt P12643); assay: as above
T1 sequence (looked up): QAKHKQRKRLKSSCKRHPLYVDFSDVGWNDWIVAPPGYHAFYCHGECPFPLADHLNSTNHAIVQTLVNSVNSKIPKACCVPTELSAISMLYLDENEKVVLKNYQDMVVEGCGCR

BMP4 [3] = target: T2, BMP4 (UniProt P12644); assay: as above
T2 sequence (looked up): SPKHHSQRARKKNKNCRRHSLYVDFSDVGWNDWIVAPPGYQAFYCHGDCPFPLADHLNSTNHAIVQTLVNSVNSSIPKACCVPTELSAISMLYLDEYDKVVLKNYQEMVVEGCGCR

BMP6 [4] = target: BMP6 (UniProt P22004); assay: SPR/Biacore (FIG. 2 legend)
BMP2 [5] = target: T1, BMP2; assay: SPR/Biacore (FIG. 2 legend)
BMP4 [6] = target: T2, BMP4; assay: SPR/Biacore (FIG. 2 legend)

- binding (BMP6 [1]): binds
- binding (BMP2 [2]): binds
- binding (BMP4 [3]): binds
- binding (BMP6 [4]): binds
- binding (BMP2 [5]): binds
- binding (BMP4 [6]): binds
B1: ERFE A4-biotin (ligand)
chain: AAGLGSPEPGAPSRSAAAAEPPPGNELPRGPGESRAGPAARPPEPTAERAHSVDPRDAWMLFVRQSDKGVNGKKRSRGKAKKLKFGLPGPPGPPGPQGPPGPIIPPEALLKEFQLLLKGAVRQRERAEPEPCTCGPAGPVAASLAPVSATAGEDDDDVVGDVLALLAAPLAPGPRAPRVEAAFLCRLRRDALVERRALHELGVYYLPDAEGAFRRGPGLNLTSGQYRAPVAGFYALAATLHVALGEPPRRGPPRPRDHLRLLICIQSRCQRNASLEAIMGLESSSELFTISVNGVLYLQMGQWTSVFLDNASGCSLTVRSGSHFSAVLLGV
modifications: biotin (site not stated)
